# Further values from the same series stand in other lists.
# Tested on: individuals who have previously had an MI
# Assay: CARE trial: effect of pravastatin vs placebo on coronary events (endpt1, rmi) by SNP genotype subgroup
# Assay type: in vivo, human
# Procedure: In Tables 21-22, the column labeled “Endpoint” indicates whether the endpoint that was analyzed was the primary endpoint of the CARE study (a composite endpoint of fatal coronary event or nonfatal MI, and identified as “endpt1”) or a composite endpoint of confirmed fatal or nonfatal MI (identified as “rmi”). […] As used herein, the term “benefit” (with respect to a preventive or therapeutic drug treatment) is defined as achieving a reduced risk for a disease that the drug is intended to treat or prevent (e.g., CVD such as CHD, particularly MI, or hypertension) by administering the drug treatment, compared with the risk for the disease in the absence of receiving the drug treatment (or receiving a placebo in lieu of the drug treatment) for the same genotype. […] J. […] (1996) New England Journal of Medicine 335: 1001-1009. […] A well-documented MI was one of the enrollment criteria for entry into the CARE study. Patients were enrolled in the CARE trial from 80 participating study centers. […] For the study of CARE described in this Example and shown in Tables 21-22, two endpoints were investigated: the primary endpoint of CARE (a composite endpoint of fatal coronary event or nonfatal MI, and identified as “endpt1” in the Endpoint column of Tables 21-22) and a composite endpoint of confirmed fatal or nonfatal MI (identified as “rmi” in the Endpoint column of Tables 21-22). […] HR stands for Hazard Ratio, which is a concept similar to Odds Ratio (OR). The HR in event-free survival analysis is the effect of an explanatory variable on the hazard or risk of an event. […] In Table 21, p-interaction values were calculated. An interaction (or effect modification) is formed when a third variable modifies the relation between an exposure and outcome. […] Genotype and drug interaction is present when the effect of statins (incidence rate of disease in statin-treated group, as compared to placebo) differs in patients with different genotypes.
# [1] = rmi, hCV487868 rs6439132, strata TC + CC
# [2] = rmi, hCV487868 rs6439132, strata TT
# [3] = rmi, hCV621313 rs471364 C9orf52, strata CC
# [4] = rmi, hCV621313 rs471364 C9orf52, strata CT
# [5] = rmi, hCV621313 rs471364 C9orf52, strata TT
# [6] = rmi, hCV904974 rs439401, strata TC + CC
# [7] = rmi, hCV904974 rs439401, strata TT
# [8] = rmi, hCV1682755 rs9424977 NEGR1, strata CT + CC
# [9] = rmi, hCV1682755 rs9424977 NEGR1, strata TT
# [10] = rmi, hCV2195496 rs4982795, strata CC
# [11] = rmi, hCV2195496 rs4982795, strata CT + TT
# [12] = rmi, hCV2948766 rs4684343 CNTN4, strata AA
# [13] = rmi, hCV2948766 rs4684343 CNTN4, strata GA + GG
# [14] = rmi, hCV10048483 rs2145270, strata CC
# [15] = rmi, hCV10048483 rs2145270, strata CT + TT
# [16] = rmi, hCV11231076 rs4857855, strata CC
# [17] = rmi, hCV11231076 rs4857855, strata CT + TT
# [18] = rmi, hCV11446935 rs2409722 XKR6, strata GG
# [19] = rmi, hCV11446935 rs2409722 XKR6, strata GT + TT
# [20] = rmi, hCV11466079 rs157580 TOMM40, strata GA + AA
# [21] = rmi, hCV11466079 rs157580 TOMM40, strata GG
# [22] = rmi, hCV11592758 rs6265 BDNF, strata CC
# [23] = rmi, hCV11592758 rs6265 BDNF, strata CT + TT
# [24] = rmi, hCV11703905 rs1169301 TCF1, strata CC
# [25] = rmi, hCV11703905 rs1169301 TCF1, strata CT + TT
# [26] = rmi, hCV11856381 rs2197089, strata AG + AA
# [27] = rmi, hCV11856381 rs2197089, strata GG
# [28] = rmi, hCV15954645 rs2954029, strata AA
# [29] = rmi, hCV15954645 rs2954029, strata AT
# [30] = rmi, hCV15954645 rs2954029, strata TT
# [31] = rmi, hCV16140621 rs2156552, strata AT + AA
# [32] = rmi, hCV16140621 rs2156552, strata TT
# [33] = rmi, hCV27480853 rs3766430 SSBP3, strata CC
# [34] = rmi, hCV27480853 rs3766430 SSBP3, strata TC + TT
# [35] = rmi, hCV28960526 rs6853079 TSPAN5, strata AA
# [36] = rmi, hCV28960526 rs6853079 TSPAN5, strata AT + TT
# [37] = rmi, hCV29480044 rs10516433 TSPAN5, strata CC
# [38] = rmi, hCV29480044 rs10516433 TSPAN5, strata CT + TT
# [39] = rmi, hCV29684678 rs10486788, strata CC
# [40] = rmi, hCV29684678 rs10486788, strata CG
# [41] = rmi, hCV29684678 rs10486788, strata GG
# [42] = rmi, hCV30136303 rs6914527, strata GC + CC
# [43] = rmi, hCV30136303 rs6914527, strata GG
# [44] = rmi, hCV30454150 rs10516434 TSPAN5, strata CC
# [45] = rmi, hCV30454150 rs10516434 TSPAN5, strata CT ± TT
# [46] = rmi, hCV30534667 rs4996259 MAGI2, strata AG + AA
# [47] = rmi, hCV30534667 rs4996259 MAGI2, strata GG
# [48] = rmi, hCV30764105 rs12521915 ITGA2, strata CC
# [49] = rmi, hCV30764105 rs12521915 ITGA2, strata GC + GG
# [50] = rmi, hDV70938014 rs17321515, strata AA
# [51] = rmi, hDV70938014 rs17321515, strata AG
# [52] = rmi, hDV70938014 rs17321515, strata GG
smiles,measurement,setting,value
CC[C@H](C)C(=O)O[C@H]1C[C@H](O)C=C2C=C[C@H](C)[C@H](CC[C@@H](O)C[C@@H](O)CC(=O)O)[C@H]21 [pravastatin],NONEVENT (Pravastatin arm),"endpt1, hcV15870728 rs2943245 C10orf64, strata CT + TT",922
same,EVENTS (Pravastatin arm),[1],60
same,NONEVENT (Pravastatin arm),[1],573
same,EVENTS (Pravastatin arm),[2],51
same,NONEVENT (Pravastatin arm),[2],718
same,EVENTS (Pravastatin arm),[3],2
same,NONEVENT (Pravastatin arm),[3],16
same,EVENTS (Pravastatin arm),[4],20
same,NONEVENT (Pravastatin arm),[4],288
same,EVENTS (Pravastatin arm),[5],89
same,NONEVENT (Pravastatin arm),[5],984
same,EVENTS (Pravastatin arm),[6],101
same,NONEVENT (Pravastatin arm),[6],1090
same,EVENTS (Pravastatin arm),[7],10
same,NONEVENT (Pravastatin arm),[7],194
same,EVENTS (Pravastatin arm),[8],73
same,NONEVENT (Pravastatin arm),[8],941
same,EVENTS (Pravastatin arm),[9],38
same,NONEVENT (Pravastatin arm),[9],347
same,EVENTS (Pravastatin arm),[10],18
same,NONEVENT (Pravastatin arm),[10],266
same,EVENTS (Pravastatin arm),[11],92
same,NONEVENT (Pravastatin arm),[11],1020
same,EVENTS (Pravastatin arm),[12],25
same,NONEVENT (Pravastatin arm),[12],244
same,EVENTS (Pravastatin arm),[13],85
same,NONEVENT (Pravastatin arm),[13],1042
same,EVENTS (Pravastatin arm),[14],22
same,NONEVENT (Pravastatin arm),[14],187
same,EVENTS (Pravastatin arm),[15],89
same,NONEVENT (Pravastatin arm),[15],1103
same,EVENTS (Pravastatin arm),[16],65
same,NONEVENT (Pravastatin arm),[16],885
same,EVENTS (Pravastatin arm),[17],46
same,NONEVENT (Pravastatin arm),[17],405
same,EVENTS (Pravastatin arm),[18],39
same,NONEVENT (Pravastatin arm),[18],325
same,EVENTS (Pravastatin arm),[19],72
same,NONEVENT (Pravastatin arm),[19],960
same,EVENTS (Pravastatin arm),[20],98
same,NONEVENT (Pravastatin arm),[20],1081
same,EVENTS (Pravastatin arm),[21],13
same,NONEVENT (Pravastatin arm),[21],207
same,EVENTS (Pravastatin arm),[22],61
same,NONEVENT (Pravastatin arm),[22],880
same,EVENTS (Pravastatin arm),[23],48
same,NONEVENT (Pravastatin arm),[23],434
same,EVENTS (Pravastatin arm),[24],44
same,NONEVENT (Pravastatin arm),[24],627
same,EVENTS (Pravastatin arm),[25],67
same,NONEVENT (Pravastatin arm),[25],661
same,EVENTS (Pravastatin arm),[26],84
same,NONEVENT (Pravastatin arm),[26],1006
same,EVENTS (Pravastatin arm),[27],27
same,NONEVENT (Pravastatin arm),[27],279
same,EVENTS (Pravastatin arm),[28],36
same,NONEVENT (Pravastatin arm),[28],376
same,EVENTS (Pravastatin arm),[29],46
same,NONEVENT (Pravastatin arm),[29],613
same,EVENTS (Pravastatin arm),[30],28
same,NONEVENT (Pravastatin arm),[30],296
same,EVENTS (Pravastatin arm),[31],30
same,NONEVENT (Pravastatin arm),[31],416
same,EVENTS (Pravastatin arm),[32],81
same,NONEVENT (Pravastatin arm),[32],876
same,EVENTS (Pravastatin arm),[33],30
same,NONEVENT (Pravastatin arm),[33],262
same,EVENTS (Pravastatin arm),[34],81
same,NONEVENT (Pravastatin arm),[34],1029
same,EVENTS (Pravastatin arm),[35],60
same,NONEVENT (Pravastatin arm),[35],796
same,EVENTS (Pravastatin arm),[36],51
same,NONEVENT (Pravastatin arm),[36],495
same,EVENTS (Pravastatin arm),[37],60
same,NONEVENT (Pravastatin arm),[37],795
same,EVENTS (Pravastatin arm),[38],51
same,NONEVENT (Pravastatin arm),[38],491
same,EVENTS (Pravastatin arm),[39],9
same,NONEVENT (Pravastatin arm),[39],89
same,EVENTS (Pravastatin arm),[40],40
same,NONEVENT (Pravastatin arm),[40],526
same,EVENTS (Pravastatin arm),[41],62
same,NONEVENT (Pravastatin arm),[41],672
same,EVENTS (Pravastatin arm),[42],77
same,NONEVENT (Pravastatin arm),[42],797
same,EVENTS (Pravastatin arm),[43],34
same,NONEVENT (Pravastatin arm),[43],493
same,EVENTS (Pravastatin arm),[44],60
same,NONEVENT (Pravastatin arm),[44],799
same,EVENTS (Pravastatin arm),[45],51
same,NONEVENT (Pravastatin arm),[45],489
same,EVENTS (Pravastatin arm),[46],47
same,NONEVENT (Pravastatin arm),[46],667
same,EVENTS (Pravastatin arm),[47],64
same,NONEVENT (Pravastatin arm),[47],624
same,EVENTS (Pravastatin arm),[48],54
same,NONEVENT (Pravastatin arm),[48],491
same,EVENTS (Pravastatin arm),[49],57
same,NONEVENT (Pravastatin arm),[49],800
same,EVENTS (Pravastatin arm),[50],34
same,NONEVENT (Pravastatin arm),[50],363
same,EVENTS (Pravastatin arm),[51],47
same,NONEVENT (Pravastatin arm),[51],620
same,EVENTS (Pravastatin arm),[52],30
same,NONEVENT (Pravastatin arm),[52],309

# Source: patent publication US8216786B2, “Genetic polymorphisms associated with cardiovascular diseases, methods of detection and uses thereof” (Celera Corporation, priority 2008, dated 2012)
